Measured values taken from publication PMC4264851.
Results are given in words; binding and its absence hold for the method and conditions named. Binding seen in cells or lysates may run through a third protein. These calls come from enrichment with a bait or labelling near it, and not all partners need be listed. For some of these results: Where a sequence is shown, tags or fusion partners need not be part of it.

Experiments:
[1] = biological target: T1, Utp4-TAP (S. cerevisiae) (UniProt Q06679); test: affinity purification with mass spectrometry; Utp4-TAP, Utp5, Utp8, Utp9 and Utp15-FLAG co-expressed in SF21 cells (bacmid K2123), without Nan1 and Utp10; one-step, bait Utp4-TAP on IgG Sepharose, TEV elution; SDS-PAGE, Coomassie, MS of bands
T1 sequence: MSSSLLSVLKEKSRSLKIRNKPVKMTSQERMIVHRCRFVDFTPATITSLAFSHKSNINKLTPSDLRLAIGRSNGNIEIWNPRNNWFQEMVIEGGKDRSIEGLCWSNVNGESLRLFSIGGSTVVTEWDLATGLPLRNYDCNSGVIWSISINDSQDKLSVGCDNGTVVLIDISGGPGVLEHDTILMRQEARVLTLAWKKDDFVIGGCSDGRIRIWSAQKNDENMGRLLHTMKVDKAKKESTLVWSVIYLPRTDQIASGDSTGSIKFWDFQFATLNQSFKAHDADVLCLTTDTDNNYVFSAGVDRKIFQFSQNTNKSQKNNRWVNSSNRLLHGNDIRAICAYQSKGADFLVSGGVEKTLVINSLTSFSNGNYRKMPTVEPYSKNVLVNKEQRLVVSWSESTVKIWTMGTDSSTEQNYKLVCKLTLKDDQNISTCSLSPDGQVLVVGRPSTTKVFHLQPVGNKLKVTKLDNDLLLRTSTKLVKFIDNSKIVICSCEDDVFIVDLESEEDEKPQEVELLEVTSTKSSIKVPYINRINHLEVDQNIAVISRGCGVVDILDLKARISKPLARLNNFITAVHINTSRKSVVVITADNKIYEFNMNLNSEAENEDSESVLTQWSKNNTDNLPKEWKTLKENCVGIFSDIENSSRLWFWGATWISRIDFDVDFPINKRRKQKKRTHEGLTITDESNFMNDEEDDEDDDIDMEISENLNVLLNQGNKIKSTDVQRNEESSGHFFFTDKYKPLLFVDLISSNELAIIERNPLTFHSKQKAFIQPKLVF

[2] = biological target: T2, Nan1-HA (S. cerevisiae) (UniProt Q02931); test: affinity purification with mass spectrometry; bacmid K2000 (all seven tUTP candidates); two-step: anti-FLAG eluate (Utp15-FLAG) purified again on anti-HA affinity matrix with Nan1-HA as bait, HA peptide elution; SDS-PAGE, Coomassie, MS of bands
T2 sequence: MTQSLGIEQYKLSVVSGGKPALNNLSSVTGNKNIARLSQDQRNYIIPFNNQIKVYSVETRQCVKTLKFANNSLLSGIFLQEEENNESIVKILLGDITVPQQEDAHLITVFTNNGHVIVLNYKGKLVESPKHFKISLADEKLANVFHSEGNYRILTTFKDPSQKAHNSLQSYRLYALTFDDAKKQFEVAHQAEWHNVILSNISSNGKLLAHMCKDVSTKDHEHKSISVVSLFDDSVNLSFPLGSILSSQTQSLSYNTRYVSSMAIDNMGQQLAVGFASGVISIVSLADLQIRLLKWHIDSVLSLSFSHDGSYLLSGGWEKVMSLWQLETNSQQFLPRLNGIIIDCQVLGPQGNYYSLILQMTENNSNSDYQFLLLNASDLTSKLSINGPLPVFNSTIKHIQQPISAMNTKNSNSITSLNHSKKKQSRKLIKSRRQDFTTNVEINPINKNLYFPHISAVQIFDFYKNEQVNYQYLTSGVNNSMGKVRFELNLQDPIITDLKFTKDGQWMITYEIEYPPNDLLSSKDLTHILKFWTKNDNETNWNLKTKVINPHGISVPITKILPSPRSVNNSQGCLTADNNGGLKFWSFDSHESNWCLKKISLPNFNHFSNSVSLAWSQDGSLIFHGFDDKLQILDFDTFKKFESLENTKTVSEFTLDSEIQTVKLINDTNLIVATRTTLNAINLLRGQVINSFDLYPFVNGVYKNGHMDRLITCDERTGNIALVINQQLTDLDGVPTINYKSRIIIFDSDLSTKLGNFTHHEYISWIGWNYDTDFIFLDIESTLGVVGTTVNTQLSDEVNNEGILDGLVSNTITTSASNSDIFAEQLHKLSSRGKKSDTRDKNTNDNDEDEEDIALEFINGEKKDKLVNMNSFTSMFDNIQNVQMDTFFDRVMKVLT

[3] = biological target: T3, Utp15-FLAG (S. cerevisiae) (UniProt Q04305); test: affinity purification with mass spectrometry; bacmid K2123 (five pentamer proteins); two-step: IgG Sepharose/TEV eluate (Utp4-TAP) purified again on anti-FLAG affinity matrix with Utp15-FLAG as bait, FLAG peptide elution; SDS-PAGE, Coomassie, MS of bands
T3 sequence: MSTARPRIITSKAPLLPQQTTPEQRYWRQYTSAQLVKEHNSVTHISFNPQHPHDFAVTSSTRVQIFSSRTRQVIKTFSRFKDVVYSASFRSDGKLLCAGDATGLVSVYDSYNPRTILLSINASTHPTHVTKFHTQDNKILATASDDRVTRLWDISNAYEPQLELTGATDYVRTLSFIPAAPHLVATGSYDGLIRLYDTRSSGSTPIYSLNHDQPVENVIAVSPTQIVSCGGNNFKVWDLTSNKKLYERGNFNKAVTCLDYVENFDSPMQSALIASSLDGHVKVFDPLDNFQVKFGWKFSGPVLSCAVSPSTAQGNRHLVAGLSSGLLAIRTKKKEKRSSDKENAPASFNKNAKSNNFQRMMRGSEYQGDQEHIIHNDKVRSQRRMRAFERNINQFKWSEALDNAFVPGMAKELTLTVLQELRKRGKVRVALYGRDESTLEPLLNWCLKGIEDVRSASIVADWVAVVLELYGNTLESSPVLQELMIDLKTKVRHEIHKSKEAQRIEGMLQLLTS

[4] = biological target: T3, Utp15-FLAG (S. cerevisiae); test: affinity purification with mass spectrometry; Utp4, Utp5, Utp8, Utp9, Utp10, Utp15-FLAG and Nan1-HA co-expressed in SF21 cells (bacmid K2000); one-step, bait Utp15-FLAG on anti-FLAG affinity matrix, lysate cleared by low-speed centrifugation, buffer A100+ (20 mM Tris-HCl pH 8, 100 mM KCl, 5 mM Mg(OAc)2, 0.5% Triton X-100, 0.1% Tween-20), 4°C, FLAG peptide elution; SDS-PAGE, Coomassie, MS of bands
[5] = biological target: T4, Utp6-HA (S. cerevisiae) (UniProt Q02354); test: affinity purification with mass spectrometry; bacmid K1992 (six UTP B proteins); two-step: anti-FLAG eluate (Utp12-FLAG) purified again on anti-HA affinity matrix with Utp6-HA as bait, HA peptide elution; SDS-PAGE, Coomassie, MS of bands
T4 sequence: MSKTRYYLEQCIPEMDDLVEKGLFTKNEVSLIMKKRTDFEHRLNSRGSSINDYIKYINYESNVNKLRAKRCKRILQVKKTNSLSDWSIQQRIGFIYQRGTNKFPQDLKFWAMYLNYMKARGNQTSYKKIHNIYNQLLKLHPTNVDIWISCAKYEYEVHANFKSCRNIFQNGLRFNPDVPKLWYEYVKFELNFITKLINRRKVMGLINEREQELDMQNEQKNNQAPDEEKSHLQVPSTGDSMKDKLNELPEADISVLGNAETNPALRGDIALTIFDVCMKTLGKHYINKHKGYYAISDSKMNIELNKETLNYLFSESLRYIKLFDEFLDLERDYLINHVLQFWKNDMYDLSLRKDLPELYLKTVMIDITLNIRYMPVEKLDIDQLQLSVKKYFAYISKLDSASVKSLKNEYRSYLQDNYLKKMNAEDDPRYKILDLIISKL

[6] = biological target: T4, Utp6-HA (S. cerevisiae); test: affinity purification with mass spectrometry; bacmid K1991 (six UTP B proteins); two-step: IgG Sepharose/TEV eluate (Pwp2-TAP) purified again on anti-HA affinity matrix with Utp6-HA as bait, HA peptide elution; SDS-PAGE, Coomassie, MS of bands
[7] = biological target: T5, Pwp2-TAP (S. cerevisiae) (UniProt P25635); test: affinity purification with mass spectrometry; Pwp2-TAP, Utp6-HA, Utp12-FLAG, Utp13, Utp18 and Utp21 co-expressed in SF21 cells (bacmid K1991); one-step, bait Pwp2-TAP on IgG Sepharose, TEV elution; SDS-PAGE, Coomassie, MS of bands
T5 sequence: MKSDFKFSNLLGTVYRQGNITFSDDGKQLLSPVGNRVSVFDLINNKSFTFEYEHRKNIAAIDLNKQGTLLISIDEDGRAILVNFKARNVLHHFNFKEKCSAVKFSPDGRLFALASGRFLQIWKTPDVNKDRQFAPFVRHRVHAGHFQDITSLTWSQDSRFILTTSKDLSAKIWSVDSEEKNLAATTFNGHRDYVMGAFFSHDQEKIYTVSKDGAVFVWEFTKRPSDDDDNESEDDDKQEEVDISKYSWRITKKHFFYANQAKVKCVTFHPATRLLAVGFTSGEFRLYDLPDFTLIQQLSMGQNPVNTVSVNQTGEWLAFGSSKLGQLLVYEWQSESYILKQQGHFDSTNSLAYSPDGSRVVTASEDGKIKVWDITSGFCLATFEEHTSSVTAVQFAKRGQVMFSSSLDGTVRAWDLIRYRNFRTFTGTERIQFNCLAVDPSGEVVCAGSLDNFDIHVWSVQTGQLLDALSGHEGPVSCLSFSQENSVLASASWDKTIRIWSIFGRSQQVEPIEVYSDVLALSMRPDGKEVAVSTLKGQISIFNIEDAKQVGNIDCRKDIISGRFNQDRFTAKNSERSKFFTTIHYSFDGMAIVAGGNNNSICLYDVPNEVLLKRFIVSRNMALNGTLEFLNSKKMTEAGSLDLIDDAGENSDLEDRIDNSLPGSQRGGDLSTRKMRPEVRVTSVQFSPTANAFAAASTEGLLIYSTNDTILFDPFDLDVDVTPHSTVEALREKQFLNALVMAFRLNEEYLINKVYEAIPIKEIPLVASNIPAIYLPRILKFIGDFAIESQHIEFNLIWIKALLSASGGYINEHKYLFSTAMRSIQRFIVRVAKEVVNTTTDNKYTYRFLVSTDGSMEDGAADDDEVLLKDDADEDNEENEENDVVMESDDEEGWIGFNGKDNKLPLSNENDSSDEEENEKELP

B1: Utp8 (protein, UniProt P53276 1-713)
chain: MPSLSQPFRLATLPKIASLSNFSLQADYVQVADGTFNESTNNITLGISGSSISQYIINPTPKLTFDYPIPSTNIITACNAEKGQANIDGNIEASTDDEANNEKTINTQKKRNVEIWAFGLMVNKGNYTLNVITKALEDTTDTSNDHLSESDIDNKAYTGSDEFLSQYKIKAKAKVMSIKIDTKNSLVIAILQNGLIEIFDFKLTLLHSFDISYDNLKYAKWFTENGTEYVFVLCPLQDDKVCYKLLELTDCGSGESSPIKELSSTIIEGFSFENSKLCYQFGKLYKLNQGKIYIYSLPHCQLQQVIEFPMVDKLSPGDDLISFQPVSVNRVLLTVNNVIYLLDLLHCSTLSQRELTHVKTFQLLKSAVINSEKSHNSKTIAIGISTKNGPNPTSSLEIINIDVGTNTLKDSLGKSFQVGNNDSSVILKPLFDDKDINDKRVKCNDVSGDSSVPVLHCNEVIEKLSALQDNDITSFDDIFFKELKIKEEHYTEKDRYISDPGFLNKVLDLIFGKFSGNDYPKTLTFLLTHPLFPLSRTRNLLSLLRDQPRLFKQAIVTCPNLPLNELLEELFSIRNRELLLDISFRILQDFTRDSIKQEMKKLSKLDVQNFIEFITSGGEDSSPECFNPSQSTQLFQLLSLVLDSIGLFSLEGALLENLTLYIDKQVEIAERNTELWNLIDTKGFQHGFASSTFDNGTSQKRALPTYTMEYLDI
[1]
  binding: binds
[2]
  binding: binds weakly
[3]
  binding: binds
[4]
  binding: binds

B2: Utp12-FLAG (protein, UniProt Q12220 1-943)
chain: MVKSYQRFEQAAAFGVIASNANCVWIPASSGNSNGSGPGQLITSALEDVNIWDIKTGDLVSKLSDGLPPGASDARGAKPAECTYLEAHKDTDLLAVGYADGVIKVWDLMSKTVLLNFNGHKAAITLLQFDGTGTRLISGSKDSNIIVWDLVGEVGLYKLRSHKDSITGFWCQGEDWLISTSKDGMIKLWDLKTHQCIETHIAHTGECWGLAVKDDLLITTGTDSQVKIWKLDIENDKMGGKLTEMGIFEKQSKQRGLKIEFITNSSDKTSFFYIQNADKTIETFRIRKEEEIARGLKKREKRLKEKGLTEEEIAKSIKESYSSFILHPFQTIRSLYKIKSASWTTVSSSKLELVLTTSSNTIEYYSIPYEKRDPTSPAPLKTHTIELQGQRTDVRSIDISDDNKLLATASNGSLKIWNIKTHKCIRTFECGYALTCKFLPGGLLVILGTRNGELQLFDLASSSLLDTIEDAHDAAIWSLDLTSDGKRLVTGSADKTVKFWDFKVENSLVPGTKNKFLPVLKLHHDTTLELTDDILCVRVSPDDRYLAISLLDNTVKVFFLDSMKFYLSLYGHKLPVLSIDISFDSKMIITSSADKNIKIWGLDFGDCHKSLFAHQDSIMNVKFLPQSHNFFSCSKDAVVKYWDGEKFECIQKLYAHQSEVWALAVATDGGFVVSSSHDHSIRIWEETEDQVFLEEEKEKELEEQYEDTLLTSLEEGNGDDAFKADASGEGVEDEASGVHKQTLESLKAGERLMEALDLGIAEIEGLEAYNRDMKLWQRKKLGEAPIKPQGNAVLIAVNKTPEQYIMDTLLRIRMSQLEDALMVMPFSYVLKFLKFIDTVMQNKTLLHSHLPLICKNLFFIIKFNHKELVSQKNEELKLQINRVKTELRSALKSTEDDLGFNVQGLKFVKQQWNLRHNYEFVDEYDQQEKESNSARKRVFGTVI
[5]
  binding: binds
[6]
  binding: binds
[7]
  binding: binds
